# Measured values from patent publication US20100048462A1 (Zealand Pharma A/S, priority 2006, published 2010).
# Test: general procedure: Fmoc solid-phase peptide synthesis; TentaGel S Ram (0.23 mmol/g, 1.2 g); preformed OBt or OAt esters (3 eq.); HATU and DIEA for OAt esters
# Conditions: whole synthesis, HPLC and MS, scale of the general procedure 1 g resin
substance,measurement,value
H-Ac5c-Val-Aib-Glu-Ile-Gln-Leu-Met-His-Gln-Har-Ala-Lys( )Trp-Leu-Asn-Asp( )-NH2,crude HPLC purity,24%
same,final HPLC purity,96%
